In patent US20240398773A1, “COMPOSITIONS COMPRISING OTESECONAZOLE” (Mycovia Pharmaceuticals, Inc., priority 2021, published 2024):
At least one read-out could not be matched to a standard name with certainty.

Assay: Physicochemical and biological properties of drug substance
Details: BCS classification
From the text: As a BCS Class IIc drug, it may be anticipated that dissolution may be dependent upon the drug substance particle size. (Tsume et al., 2014). Micronization of the drug substance provided a means to deliver drug substance with a small and consistent particle size. A discriminatory dissolution method was developed to show the effect of drug substance particle size on dissolution to help ensure product quality. […] A high shear wet granulation process was developed to densify the product, and improve its flow to enable manufacturing, while maintaining good dissolution from the formulation.

O[C@@](Cn1cnnn1)(c1ccc(F)cc1F)C(F)(F)c1ccc(-c2ccc(OCC(F)(F)F)cc2)cn1 [Oteseconazole, oteseconazole]
permeability: high permeability
